Measured values published in PubChem BioAssay AID330 (DTP/NCI, 2004).
The list shows only some results of the screen, not a fair sample: it is rich in T/C values a quarter to a half above the control, in often repeated tests (any T/C) and in doses without a T/C. Further doses and runs are listed elsewhere. T/C: endpoint of the treated group in % of that of the vehicle group. Some entries give survivors of the animals treated and no T/C: the source files T/C as zero there, which appears to mark a toxic dose or a test without result, not a measured value. Some survivor counts are full or nearly so, which does not show that the dose was tolerated: survival well below the control is almost never listed, so the zero probably covers shortened survival too. Counts of survivors are from the toxicity check (mostly the fifth day) where no day follows; animals may have died later. Schedule codes are those of the source, taken here to give the interval after Q, in days (D) or hours (H), and the number of doses after X. Some structures stand for samples that the source files as different forms (salt, stereo form or complex); doses refer to the form tested. Some doses were run more than once; the values are given in rising order. For survival time, this PubChem deposit counts one and a half times the control or more as active, and values a quarter to a half above the control carry no call in these data; other NCI protocols may use other cut-offs. Some T/C values carry the count of animals alive at the toxicity check (mostly the fifth day); without a count, all were alive then.

System: P388 leukemia ip, CD2F1 mice, survival T/C
Experiment: NCI In Vivo Anticancer Drug Screen. Data for tumor model P388 Leukemia (intraperitoneal) in CD2F1 (CDF1) mice
Conditions: T/C endpoint: median survival time, higher T/C = longer survival
[1] = dose: 240.0 mg/kg/injection, schedule: Q01DX005 (ip), vehicle: Klucel (hydroxypropylcellulose) (HPC)
[2] = dose: 25.0 mg/kg/injection, schedule: Q01DX009 (ip), vehicle: water
[3] = dose: 50.0 mg/kg/injection, schedule: Q01DX009 (ip), vehicle: water
[4] = dose: 100.0 mg/kg/injection, schedule: Q01DX009 (ip), vehicle: saline with Tween-80
[5] = dose: 25.0 mg/kg/injection, schedule: Q01DX005 (ip), vehicle: saline with Tween-80
[6] = dose: 200.0 mg/kg/injection, schedule: Q01DX009 (ip), vehicle: saline
[7] = dose: 200.0 mg/kg/injection, schedule: Q01DX005 (ip), vehicle: Klucel (hydroxypropylcellulose) (HPC)

## COC1=CC(=O)C2=C(OCO2)C1=O
dose: 100.0 mg/kg/injection, schedule: Q04DX002 (ip), vehicle: saline with Tween-80
  survivor count: 0 of 6
dose: 200.0 mg/kg/injection, schedule: Q04DX002 (ip), vehicle: saline with Tween-80
  survivor count: 0 of 6
dose: 400.0 mg/kg/injection, schedule: Q04DX002 (ip), vehicle: saline with Tween-80
  survivor count: 0 of 6

## COc1ccc([N+]([O-])=NC#N)cc1
dose: 200.0 mg/kg/injection, schedule: Q04DX003 (ip), vehicle: Klucel (hydroxypropylcellulose) (HPC)
  survivor count: 6 of 6

## CC(=O)NCCc1nc(-c2nc(C(=O)NCCCCN)cs2)cs1
dose: 200.0 mg/kg/injection, schedule: Q01DX009 (ip), vehicle: water
  T/C: 137 % of control

## CC[C@]12CN3CCc4c([nH]c5ccccc45)[C@@](C(=O)OC)(c4cc5c(cc4OC)N(C=O)[C@H]4[C@@](O)(C(=O)OC)[C@H](OC(C)=O)[C@]6(CC)C=CCN7CC[C@]54[C@@H]76)C[C@H](C3)[C@H]1O2
dose: 1.0 mg/kg/injection, schedule: Q01DX009 (ip), vehicle: saline
  T/C: 142 % of control
dose: 2.0 mg/kg/injection, schedule: Q01DX009 (ip), vehicle: saline
  T/C: 131 and 141 % of control
dose: 4.0 mg/kg/injection, schedule: Q01DX009 (ip), vehicle: saline
  T/C: 148 % of control

## C/C(=C1\C(=O)Oc2c(ccc3ccccc23)C1=O)c1ccc2ccccc2c1O
dose: 100.0 mg/kg/injection, schedule: Q01DX005 (ip), vehicle: saline with Tween-80
  survivor count: 6 of 6
dose: 200.0 mg/kg/injection, schedule: Q01DX005 (ip), vehicle: saline with Tween-80
  survivor count: 6 of 6

## Cc1ccc(NC(=S)SCc2ccc(Cl)c(Cl)c2)cc1Br
dose: 50.0 mg/kg/injection, schedule: Q01DX009 (ip), vehicle: suspension in saline
  survivor count: 4 of 6
dose: 100.0 mg/kg/injection, schedule: Q01DX009 (ip), vehicle: suspension in saline
  survivor count: 5 of 6

## CC(=O)c1c(C)[nH]c2c1[nH]c1ccccc12
[1]
  survivor count: 5 of 6

## CC(C)=NOCc1ccccc1
dose: 25.0 mg/kg/injection, schedule: Q01DX009 (ip), vehicle: Klucel (hydroxypropylcellulose) (HPC)
  survivor count: 6 of 6

## C1CCC2C(C1)CC[N-]C2CCC1[N-]CCC2CCCCC21.C1CCC2C(C1)CC[N-]C2CCC1[N-]CCC2CCCCC21.[Ni+2].[O-][Cl+3]([O-])([O-])O (configuration not stated)
dose: 200.0 mg/kg/injection, schedule: Q01DX001 (ip), vehicle: saline
  T/C: 128 % of control [4 of 6 alive]
dose: 400.0 mg/kg/injection, schedule: Q01DX001 (ip), vehicle: saline
  survivor count: 0 of 6

## NC(=S)Nc1ccccc1
dose: 20.0 mg/kg/injection, schedule: Q04DX003 (ip), vehicle: saline with Tween-80
  survivor count: 3 of 6
dose: 40.0 mg/kg/injection, schedule: Q04DX003 (ip), vehicle: saline with Tween-80
  survivor count: 0 of 6
dose: 80.0 mg/kg/injection, schedule: Q04DX003 (ip), vehicle: saline with Tween-80
  survivor count: 0 of 6

## COCCCNS(=O)(=O)c1ncnc2nc[nH]c12
dose: 200.0 mg/kg/injection, schedule: Q04DX003 (ip), vehicle: saline with Tween-80
  T/C: 125 % of control

## CCN(CC)P(Cl)(C1=C(Cl)C(=O)C(C#N)=C(C#N)C1=O)(N(CC)CC)N(CC)CC
dose: 200.0 mg/kg/injection, schedule: Q01DX001 (ip), vehicle: saline with Tween-80
  survivor count: 6 of 6

## Cc1cc(=NCCCN(C)C)c2ccc3c(ccc4c(=NCCCN(C)C)cc(C)n(O)c43)c2n1O
[2]
  T/C: 132 % of control
[3]
  survivor count: 2 of 5, 3 of 5, 5 of 5
dose: 100.0 mg/kg/injection, schedule: Q01DX009 (ip), vehicle: distilled water + alcohol
  survivor count: 0 of 5
dose: 100.0 mg/kg/injection, schedule: Q01DX009 (ip), vehicle: water
  survivor count: 0 of 5

## COc1cccc2c1C(=O)c1c(O)c3c(c(O)c1C2=O)C[C@H](O)C[C@@H]3OC1CC(N)C(O)C(C)O1 (some centres not stated)
dose: 9.4 mg/kg/injection, schedule: Q04DX003 (ip), vehicle: water
  T/C: 133 % of control
dose: 16.0 mg/kg/injection, schedule: Q04DX003 (ip), vehicle: saline
  T/C: 145 % of control
dose: 18.8 mg/kg/injection, schedule: Q04DX003 (ip), vehicle: water
  T/C: 145 % of control
[2]
  survivor count: 6 of 6
dose: 32.0 mg/kg/injection, schedule: Q04DX003 (ip), vehicle: saline
  T/C: 145 % of control
dose: 37.5 mg/kg/injection, schedule: Q04DX003 (ip), vehicle: water
  T/C: 136 % of control
[3]
  survivor count: 5 of 6

## Oc1cccc(N2CCN(c3cccc(O)c3)CC2)c1
[1]
  survivor count: 6 of 6

## O=C(O)c1nn(-c2ccccc2)c2c1CSc1ccccc1-2
dose: 400.0 mg/kg/injection, schedule: Q01DX001 (ip), vehicle: saline with Tween-80
  survivor count: 0 of 6

## Cc1ccc(/C=C/C(=N/NC(=O)c2ccccc2)C(C)CN(C)C)cc1 (configuration not stated)
dose: 240.0 mg/kg/injection, schedule: Q01DX005 (ip), vehicle: saline
  survivor count: 0 of 6

## CNC(=O)OCc1c(COC(=O)NC)c(-c2ccc([N+](=O)[O-])cc2)n(C)c1C
dose: 3.13 mg/kg/injection, schedule: Q01DX009 (ip), vehicle: distilled water + Tween-80
  T/C: 146 % of control
dose: 25.0 mg/kg/injection, schedule: Q01DX009 (ip), vehicle: distilled water + Tween-80
  survivor count: 6 of 6
dose: 50.0 mg/kg/injection, schedule: Q01DX009 (ip), vehicle: distilled water + Tween-80
  survivor count: 4 of 6
dose: 100.0 mg/kg/injection, schedule: Q01DX009 (ip), vehicle: distilled water + Tween-80
  survivor count: 1 of 6

## O=NN(CCCl)C(=O)Nc1ccc(I)cc1
dose: 1.32 mg/kg/injection, schedule: Q01DX009 (ip), vehicle: saline with Tween-80
  T/C: 145 % of control
dose: 2.0 mg/kg/injection, schedule: Q01DX009 (ip), vehicle: saline with Tween-80
  T/C: 136 % of control
dose: 3.13 mg/kg/injection, schedule: Q04DX003 (ip), vehicle: saline with Tween-80
  T/C: 136 % of control
dose: 12.5 mg/kg/injection, schedule: Q04DX003 (ip), vehicle: saline sonified
  T/C: 141 % of control
[4]
  survivor count: 6 of 6

## O=Cc1ccc(NCCCN2CCN(CCCNc3ccc(C=O)c4sc5ccccc5c(=O)c34)CC2)c2c(=O)c3ccccc3sc12
[5]
  survivor count: 6 of 6

## CC(=O)C(C(C)=O)C(C(C)=O)C(C)=O.[Cu]
dose: 12.5 mg/kg/injection, schedule: Q01DX005 (ip), vehicle: saline with Tween-80
  survivor count: 1 of 5
[5]
  survivor count: 0 of 5

## CCC(O)CN(C)Cc1cc2c(c3ccccc13)CCCC2 (configuration not stated)
[6]
  survivor count: 0 of 6

## O=c1ncc2ccc([N+](=O)[O-])cc2[nH]1
dose: 50.0 mg/kg/injection, schedule: Q01DX005 (ip), vehicle: Klucel (hydroxypropylcellulose) (HPC)
  T/C: 93, 97, 99, 123 % of control
dose: 100.0 mg/kg/injection, schedule: Q01DX005 (ip), vehicle: Klucel (hydroxypropylcellulose) (HPC)
  survivor count: 4 of 5
[7]
  survivor count: 0 of 5

## Cc1nc(Nc2ccccc2)c2c(C)c[nH]c2n1
[7]
  survivor count: 0 of 6

## CCOC(=O)Cn1/c(=N/N=C/c2ccc([N+](=O)[O-])o2)sc2cc(OC)ccc21
dose: 15.0 mg/kg/injection, schedule: Q01DX005 (ip), vehicle: saline with Tween-80
  survivor count: 6 of 6
dose: 30.0 mg/kg/injection, schedule: Q01DX005 (ip), vehicle: saline with Tween-80
  survivor count: 6 of 6
dose: 60.0 mg/kg/injection, schedule: Q01DX005 (ip), vehicle: Klucel (hydroxypropylcellulose) (HPC)
  survivor count: 5 of 6
dose: 120.0 mg/kg/injection, schedule: Q01DX005 (ip), vehicle: Klucel (hydroxypropylcellulose) (HPC)
  survivor count: 6 of 6
[1]
  survivor count: 4 of 6

## O=C(CC(=O)N1CCN(c2ccccn2)CC1)N1CCN(c2ccccn2)CC1
[6]
  survivor count: 0 of 6

## CC1=CC(C)=C(C#N)C2=S=C(c3ccccc3)C(=O)N12
dose: 50.0 mg/kg/injection, schedule: Q01DX005 (ip), vehicle: saline with Tween-80
  survivor count: 5 of 5

## CNc1nc(NC)nc(N(C)C=O)n1
[4]
  survivor count: 5 of 6

## CCOC(CN=Cc1cc(C)c2oc3ccccc3c2c1C)OCC
dose: 400.0 mg/kg/injection, schedule: Q01DX009 (ip), vehicle: saline with Tween-80
  survivor count: 4 of 6

## CCc1cc(Cc2cc(CC)cc(C(C)(C)C)c2O)c(O)c(C(C)(C)C)c1
dose: 100.0 mg/kg/injection, schedule: Q01DX009 (ip), vehicle: Klucel (hydroxypropylcellulose) (HPC)
  survivor count: 6 of 6
